Experimental data from PMC9387862.

Amino acid sequences for entries named in this document (tags omitted). A change or cut given only in a name is not applied to a line headed by its entry.
UniProt P41046: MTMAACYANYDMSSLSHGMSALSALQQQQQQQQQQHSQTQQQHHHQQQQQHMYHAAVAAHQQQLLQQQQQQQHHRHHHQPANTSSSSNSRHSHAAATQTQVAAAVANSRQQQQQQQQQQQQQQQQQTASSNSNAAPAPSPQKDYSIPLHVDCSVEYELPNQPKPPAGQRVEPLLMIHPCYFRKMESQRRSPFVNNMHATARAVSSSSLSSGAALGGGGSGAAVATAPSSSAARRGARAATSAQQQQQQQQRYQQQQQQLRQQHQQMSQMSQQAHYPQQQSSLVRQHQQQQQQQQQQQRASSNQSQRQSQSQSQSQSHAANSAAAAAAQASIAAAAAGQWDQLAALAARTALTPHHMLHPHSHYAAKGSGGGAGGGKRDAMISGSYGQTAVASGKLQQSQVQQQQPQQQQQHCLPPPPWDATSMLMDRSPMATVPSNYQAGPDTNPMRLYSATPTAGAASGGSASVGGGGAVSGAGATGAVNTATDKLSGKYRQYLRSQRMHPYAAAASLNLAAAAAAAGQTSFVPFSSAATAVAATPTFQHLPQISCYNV
UniProt Q9W1B9: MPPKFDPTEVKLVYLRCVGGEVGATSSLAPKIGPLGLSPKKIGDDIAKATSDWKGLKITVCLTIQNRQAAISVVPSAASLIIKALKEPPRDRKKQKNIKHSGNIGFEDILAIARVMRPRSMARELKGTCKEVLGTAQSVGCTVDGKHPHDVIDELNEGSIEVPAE

Target: FLAG-tagged chromodomain of Corto (Drosophila melanogaster) (UniProt P41046)
Assay: co-IP; S2 cells transiently co-transfected, harvested after 48 h, no fixation; anti-FLAG antibody on Protein G beads (anti-HA as mock); Western blot with anti-Myc and anti-FLAG

uL11-Myc (from UniProt Q9W1B9 1-165)
binding: binds

Results are given in words; binding and its absence hold for the method and conditions named. Binding seen in cells or lysates may run through a third protein. A result given as binding can be weak or reduced; the word gives no strength.
